Results deposited as PubChem BioAssay AID1508588 (Peter MacCallum Cancer Centre, 2020)
Shown is an unselected part of about 18,000 reagents. In the full data, 790 (4.4%) are marked active. 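Calls rest on a combination of fold-change classes in drug and vehicle arms, not all shown here.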 Entries without a mark were called inactive. Reagent sequences are not shown.

Screen: 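Genome-wide search for knock-downs that heighten vemurafenib action in melanoma cells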 (primary screen)
Cells: human WM266.4 melanoma cells (BRAF V600 mutant)
Reagent: siRNA pool against human genes, 40 nM
Timing: 96 h from transfection to read-out
Conditions: vemurafenib 300 nM (about IC25), added 48 h after transfection, for 48 h; comparison arm got DMSO vehicle only
Read-out: 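Ratios to non-targeting siRNA for cell gain, counted as DAPI nuclei after minus before drug and averaged over two replicates, and for absorbance-read medium lactate per cell; both binned into fold-change classes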
Reading the numbers: cell gain with vemurafenib: higher = more cell gain than with non-targeting siRNA; lactate per cell with vemurafenib: higher = more lactate made per cell
Active means: 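Enhancement is called by pairing each knock-down's vehicle-arm and drug-arm fold-change classes for viability or glycolysis; which class combinations qualify is not given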
Calls: active = enhances vemurafenib effect; inactive = no enhancement seen

cell gain with vemurafenib | lactate per cell with vemurafenib | target
0.59 | 1.38 | TMT1B
0.81 | 0.71 | FAM110A
0.69 | 1.16 | MAGT1
0.92 | 0.36 | FBXO39
0.57 | 1.42 | BPIFB6
0.7 | 1.15 | DOCK5
0.33 | 1.54 | CDY2A
0.53 | 1.79 | LSM2
0.7 | 0.38 | SULT4A1
0.6 (active) | 0.57 | KNTC1
0.72 | 1.14 | CCNYL1
0.66 | 0.62 | PITHD1
0.35 | 0.6 | ZNF430
0.1 | 0.84 | HOXB13
0.39 | 1.44 | MIEF1
0.33 | 0.19 | AOX1
0.9 | 1.28 | IGFLR1
0.7 | 0.66 | SPRED2
0.11 | 1.38 | H2AX
0.41 | 1.37 | OR5M11
0.53 | 0.64 | CSF2RB
0.31 | 0.85 | FASN
0.69 | 0.74 | RMI2
1.18 | 0.58 | NPB
0.97 | 0.76 | DNAH9
0.86 | 0.56 | PRLHR
0.88 | 1.02 | ODAPH
0.64 | 0.86 | MAN2B1
0.84 | 0.74 | RUSC1-AS1
0.52 | 1.76 | TSHZ2
0.79 | 0.66 | HSF5
0.93 | 0.78 | MAGI3
0.28 | 1.08 | PRELID3B
0.19 | 1.49 | KCTD15
1.46 | 0.86 | CD320
0.08 | 1.84 | OTUD6A
0.7 | 0.38 | TCP11L1
0.18 | 1.2 | KIF20B
0.29 | 0.36 | WNT10A
0.94 | 0.61 | LY6G5C
0.73 | 0.76 | ZDHHC20
0.66 | 1.29 | MED11
0.54 | 1.76 | RNASEH2C
0.53 | 1.21 | PAK1
0.86 | 0.73 | ZNF555
0.39 | 1.02 | NAAA
0.78 | 0.5 | ERBB3
0.41 | 0.97 | ITGAX
0.62 | 0.84 | SPANXN1
0.26 | 1.18 | ADGRF2P
0.67 | 1.06 | PNPLA2
0.21 | 1.11 | PAXIP1
0.67 | 0.68 | MOB3C
-0.11 | 1.78 | RPS21
0.86 | 0.72 | CEP85

Entries listed so far whose gene name starts with L or l:
cell gain with vemurafenib | lactate per cell with vemurafenib | target
0.53 | 1.79 | LSM2
0.94 | 0.61 | LY6G5C

Continued.
cell gain with vemurafenib | lactate per cell with vemurafenib | target
0.77 | 1.58 | TAS2R42
0.75 | 0.8 | PFN2
0.85 | 0.84 | ADAM17
0.91 | 0.51 | PPP1R1B
0.67 | 1.43 | NRSN2
0.63 | 1.04 | MYL9
0.26 | 0.72 | FAM89B
0.48 | 1.06 | KRTAP5-4
0.96 | 1.33 | P2RX5
0.6 | 0.81 | KLHL5
0.64 | 0.61 | HAO1
0.26 | 0.92 | MXD1
0.77 | 1.46 | HLA-DRA
0.1 | 1.03 | CPN2
0.45 | 0.8 | HSBP1
0.57 | 0.31 | PPID
-0.1 | 2.67 | C7
0.32 | 1 | ESRRB
0.56 | 1.02 | PREP
0.84 | 0.72 | KRT74
-0.12 | 1.29 | ANKZF1
0.76 | 0.73 | CYP4X1
0.54 | 0.8 | COMMD1
0.41 | 1.39 | ELANE
0.08 | 1.27 | TLR4
0.82 | 0.82 | BAG2
1.1 | 0.8 | TMEM184B
0.26 | 1.84 | SOX5
1.09 | 0.6 | IGFBP4
